Laboratory results taken from patent US20070028316A1.
No constants are given. Whether binding was seen depends on the method and setting. Binding seen in cells or lysates may run through a third protein. Some binding calls cover weakened binding; strength is not graded here. Sequences can lack the tags named with a protein.

Protein sequences, listed by entry. Tags and fused reporters are not part of them.
UniProt O43734: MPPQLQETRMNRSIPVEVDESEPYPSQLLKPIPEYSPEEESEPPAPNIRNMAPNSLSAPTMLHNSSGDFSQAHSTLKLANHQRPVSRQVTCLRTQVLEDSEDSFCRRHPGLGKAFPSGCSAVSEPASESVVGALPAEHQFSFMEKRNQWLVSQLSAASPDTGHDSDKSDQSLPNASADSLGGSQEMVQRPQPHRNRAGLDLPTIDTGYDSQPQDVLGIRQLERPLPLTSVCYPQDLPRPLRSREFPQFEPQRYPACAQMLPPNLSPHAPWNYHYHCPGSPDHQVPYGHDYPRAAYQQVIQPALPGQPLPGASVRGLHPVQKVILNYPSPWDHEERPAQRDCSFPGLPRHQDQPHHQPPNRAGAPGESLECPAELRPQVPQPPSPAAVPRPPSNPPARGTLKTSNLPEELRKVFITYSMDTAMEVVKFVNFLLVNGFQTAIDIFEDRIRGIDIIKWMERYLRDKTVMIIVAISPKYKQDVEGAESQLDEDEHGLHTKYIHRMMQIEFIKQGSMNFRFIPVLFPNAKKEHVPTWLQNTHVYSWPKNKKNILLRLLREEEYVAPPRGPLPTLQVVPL

Legend:
[1] = molecular target: T1, FLAG-tagged human IL-17 receptor, full-length (human) (UniProt Q96F46); assay: co-immunoprecipitation in transfected 293 cells, anti-FLAG (M2) IP, western blot for Act1 (FIG. 22)
T1 sequence (looked up): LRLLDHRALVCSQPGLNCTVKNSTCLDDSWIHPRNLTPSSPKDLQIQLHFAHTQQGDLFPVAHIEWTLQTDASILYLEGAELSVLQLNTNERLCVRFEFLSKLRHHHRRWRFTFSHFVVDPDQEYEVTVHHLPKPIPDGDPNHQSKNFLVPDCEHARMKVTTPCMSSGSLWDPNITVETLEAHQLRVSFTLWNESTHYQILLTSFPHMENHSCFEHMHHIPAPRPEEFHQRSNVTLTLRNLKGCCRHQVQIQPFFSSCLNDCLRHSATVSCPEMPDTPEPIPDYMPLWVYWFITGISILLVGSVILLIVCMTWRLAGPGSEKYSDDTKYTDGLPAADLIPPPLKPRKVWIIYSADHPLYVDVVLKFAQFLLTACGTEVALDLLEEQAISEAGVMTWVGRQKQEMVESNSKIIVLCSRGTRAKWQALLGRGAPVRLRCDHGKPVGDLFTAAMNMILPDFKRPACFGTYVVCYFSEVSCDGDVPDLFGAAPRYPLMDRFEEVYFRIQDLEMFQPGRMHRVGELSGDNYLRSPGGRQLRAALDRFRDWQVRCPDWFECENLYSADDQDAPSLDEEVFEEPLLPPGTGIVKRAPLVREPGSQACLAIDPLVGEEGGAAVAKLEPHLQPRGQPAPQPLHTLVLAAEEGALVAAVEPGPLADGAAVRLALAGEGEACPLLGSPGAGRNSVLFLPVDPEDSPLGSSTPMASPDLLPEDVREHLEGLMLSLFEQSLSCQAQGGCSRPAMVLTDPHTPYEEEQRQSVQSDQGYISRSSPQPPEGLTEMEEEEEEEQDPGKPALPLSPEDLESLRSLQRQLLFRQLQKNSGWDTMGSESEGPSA

[2] = molecular target: T1, FLAG-tagged human IL-17 receptor, full-length (human); assay: co-immunoprecipitation in transfected 293 cells, anti-FLAG (M2) IP, western blot for Act1

**Q.** Which results are given for “HA-tagged Act1 (pCMV-Act1) (from UniProt O43734 1-574)”?
**A.** binding [1]: binds; binding [2]: binds
